Measurements reported in PubChem BioAssay AID686937 (Drosophila RNAi Screening Center, 2013)
Test: 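Genes in the fly needed for secretion of protein constitutively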 (primary screen). Cell system: Drosophila S2 cells expressing secreted horseradish peroxidase. Reagent: long dsRNA against Drosophila genes. Timing: about 5.5 days (5 days dsRNA, then 12 h reporter induction). Challenge: reporter expression induced after 5 days of dsRNA, read 12 h later; inducer not stated. Measurement: 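Chemiluminescent measurement of peroxidase in the medium 12 h after reporter induction, following 5 days of dsRNA, given as a z-score per plate; higher means more secretion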. Reading the numbers: z-score: higher = more reporter secreted into medium.
The screen tested about 23,000 reagents; shown is an unselected part of those that have a named target and a result. 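Reduced-secretion tags in replicate 1 do not always agree with the z-scores; no criterion for assigning the tags was given.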 A plus sign joins genes that one reagent is predicted to hit. Not given: the amount of reagent.

no.	predicted target	amplicon	z-score, replicate 1	z-score, replicate 2	z-score, replicate 3	z-score, replicate 4	phenotype, replicate 1
1	CG10339	DRSC04065	0.13	0			
2	Or49a	DRSC07493	0.31	0.2			
3	Megf8	DRSC03058	0.24	0.53			
4	Oatp58Da	DRSC04365	0.13	0.22			
5	ATP8 (retired record)	DRSC21277	0.41	-0.04			
6	CG5892	DRSC15910	0.31	0.41			
7	CG32712	DRSC17820	0.52	0.19			
8	roh	DRSC04003	-1.01				
9	CG1983	DRSC15410	0.26	0.47			
10	crb	DRSC16927	0.44	0.41			
11	CG32751	DRSC21770	-0.34	-0.21			
12	Fdx2	DRSC08306	0.41	0.17			
13	CG11034	DRSC02121	-0.13	0.11			
14	CG11034	DRSC02122	0.48	0.08			
15	CG34277 + CG31542	DRSC21544	1.58	0.23			
16	ssp2	DRSC11052	0.66	0.54			
17	CG9021	DRSC03128	0.22	0.44			
18	CG11635	DRSC06075	0.33	0.3			
19	Sardh	DRSC06981	0.18	0.27			
20	Sans	DRSC06357	0.07	0.44			
21	nmdyn-D7	DRSC17016	0.29	-0.11			
22	CG2765	DRSC04315	-0.29	-0.44			
23	Srg1	DRSC14640	0.27	0.25			
24	Grip75	DRSC03337	0.16	0.07			
25	CG13970	DRSC02311	-0.09	-0.26			
26	CG30114	DRSC05707	0.75	0.49			
27	Mpi	DRSC16417	0.01	0.49			
28	Brms1	DRSC19896	-0.94	-0.07			
29	CG11865	DRSC01872	-0.36	0.2			
30	Lcp65APsi	DRSC08795	0.34	-0.02			
31	Lcp65APsi	DRSC10342	0.37	0.35			
32	Obp83ef	DRSC12268	0	0.27			
33	Ag5r	DRSC19327	0.36	0.43			
34	Cyp4p2	DRSC07373	0.46	0.56			
35	Creld	DRSC00308	0.27	0.35			
36	Sr-CII	DRSC07557	-0.01	0.17			
37	polo	DRSC11384	-1.35	0.15	0.25	-0.94	
38	polo	DRSC22359	-2.03	-3.65			reduced secretion
39	Cpr65Eb	DRSC11026	0.33	0.36			
40	CG42699	DRSC18076	0.07	0.13			
41	CG42699	DRSC18341	0.53	0.39			
42	LManI	DRSC02838	-0.08	0.19			
43	Acyp	DRSC01861	0.67	0.5			
44	CG13046	DRSC09927	0.22	0.27			
45	CG8646	DRSC07230	0.24	0.29			
46	tll	DRSC17085	-0.25	-0.1			
47	TwdlT	DRSC16677	0.37	0.38			
48	TwdlT	DRSC21540	-0.82	-0.38			reduced secretion
49	Su(fu)	DRSC16871	0.31	0.28			
50	rig	DRSC06053	0.23	0.38			
51	rig	DRSC06400	0.32	0.15			
52	dachs	DRSC01026	0.63	0.58	0.33	-0.03	
53	dachs	DRSC02072	0.33	0.36			
54	dachs	DRSC02191	0.37	0.3			

Targets listed so far whose target name begins with A or a:
predicted target	amplicon	z-score, replicate 1	z-score, replicate 2	z-score, replicate 3	z-score, replicate 4	phenotype, replicate 1
ATP8 (retired record)	DRSC21277	0.41	-0.04			
Ag5r	DRSC19327	0.36	0.43			
Acyp	DRSC01861	0.67	0.5			

Continued:
no.	predicted target	amplicon	z-score, replicate 1	z-score, replicate 2	z-score, replicate 3	z-score, replicate 4	phenotype, replicate 1
55	Pex23	DRSC10323	0.14	0.21			
56	Pex23	DRSC10645	0.38	0.2			
57	VhaPPA1-2	DRSC16176	0.63	0.72			
58	CG10479	DRSC09733	0.72	0.64			
59	CG12147	DRSC12192	0.42	0.48			
60	lectin-46Cb	DRSC06611	0.18	0.4			
61	CG15225	DRSC04232	-0.05	0.4			
62	CG15740	DRSC19706	-4.11	-2.25			reduced secretion
63	Nrg	DRSC17573	0.46	0.05			
64	Nrg	DRSC18688	0.38	0.42			
65	CG13872	DRSC06431	0.35	0.33			
66	Rab7	DRSC16810	0.04	-0.18			
67	wech	DRSC06606	0.13	-0.11			
68	CG4374	DRSC15570	0.34	0.36			
69	CG15553	DRSC15091	0.44	0.41			
70	rept	DRSC11388	-0.78	-1.49			
71	CG14615	DRSC20627	-0.15	0.05			
72	CG32987	DRSC22373	0.18	0.64			
73	GLS	DRSC07261	0.23	0.27			
74	Art4	DRSC15779	0.21	0.48			
75	Sting	DRSC06615	0.15	0.4			
76	Vml	DRSC17695	-0.8	0.46			
77	Vml	DRSC18529	-0.63	-0.35			
78	CG13614	DRSC14617	0.19	-6.4			
79	Ent1	DRSC00330	0.2	0.5			
80	CG18477 + CG31780	DRSC01955	0.08	0.22			
81	CG13314	DRSC09985	0.19	0.23			
82	neo	DRSC16316	0.37	0.38			
